Measurements as given in PubChem BioAssay AID328 (DTP/NCI, 2004).
The list does not hold the whole screen: it is rich in T/C values a quarter to a half above the control, in often repeated tests (any T/C) and in doses without a T/C. Further doses and runs are listed elsewhere. T/C: endpoint of the treated group in % of that of the vehicle group. Some doses have a count of surviving animals in place of a T/C: the source holds a T/C of zero for them, seemingly a mark for toxic or unscored doses. Some survivor counts are full or nearly so, which does not show that the dose was tolerated: survival well below the control is almost never listed, so the zero probably covers shortened survival too. Survivors were counted at the toxicity check, usually on the fifth day, unless a day is given; later deaths do not show. Schedule codes are those of the source, taken here to give the interval after Q, in days (D) or hours (H), and the number of doses after X. Some entries hold several experiments; the results are listed from low to high. Where survival is the endpoint, this PubChem deposit counts one and a half times the control or more as active, and values a quarter to a half above the control carry no call in these data; other NCI protocols may use other cut-offs. Some T/C values carry the count of animals alive at the toxicity check (mostly the fifth day); without a count, all were alive then. Counts like (3×) count equal records among those shown.

Test system: BDF1 mice, P388 leukemia ip, median survival T/C
Test: NCI In Vivo Anticancer Drug Screen. Data for tumor model P388 Leukemia (intraperitoneal) in B6D2F1 (BDF1) mice
Conditions: T/C endpoint: median survival time, vehicle: Klucel (hydroxypropylcellulose) (HPC), higher T/C = longer survival
Method in brief: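 Mice carrying the transplantable tumour receive compound or vehicle. Survival is followed in each arm, and the treated measure is divided by the vehicle measure.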

[1] = dose: 50.0 mg/kg/injection, schedule: Q01DX009 (ip)
[2] = dose: 100.0 mg/kg/injection, schedule: Q01DX009 (ip)

## O=C1CN=C(c2ccc[nH]2)c2cc(Cl)ccc2N1
dose: 50.0 mg/kg/injection, schedule: Q01DX001 (ip), evaluated on day 30
  T/C: 88, 93 (2×), 95, 96 (2×), 97, 98, 100 (3×), 101 (3×), 104 (2×), 105, 106, 109 (2×), 111, 112, 114 (2×), 115, 120, 123, 127, 128 % of control
dose: 50.0 mg/kg/injection, schedule: Q01DX001 (ip), evaluated on day 35
  T/C: 103 and 107 % of control
dose: 50.0 mg/kg/injection, schedule: Q01DX001 (ip)
  survivor count: 3 of 3
dose: 50.0 mg/kg/injection, schedule: Q01DX005 (ip), evaluated on day 30
  T/C: 91 [5 of 6 alive], 92 (3×), 99, 100 (2×), 103, 104 (2×), 105 (3×), 106, 108 (2×), 109, 110, 111, 112 (3×), 113, 115 (2×), 117, 118, 120, 121, 122, 123, 128 % of control
dose: 50.0 mg/kg/injection, schedule: Q01DX005 (ip), evaluated on day 35
  T/C: 99 % of control
dose: 50.0 mg/kg/injection, schedule: Q01DX005 (ip)
  survivor count: 3 of 3 and 6 of 6
[1]
  T/C: 86 [5 of 6 alive], 88, 94, 98, 100 (2×), 102 (2×), 103 (2×), 104 (2×), 106, 107 (3×), 108 [5 of 6 alive], 109 (3×), 111, 117 (2×), 124, 125, 126, 127, 134, 144, 145 % of control (3×)
  survivor count: 3 of 3 and 6 of 6
dose: 50.0 mg/kg/injection, schedule: Q04DX002 (ip), evaluated on day 30
  T/C: 91, 93, 97, 98 (2×), 100 (3×), 101, 102 (3×), 103, 105 (2×), 107 (4×), 109, 110, 112 (3×), 113, 114, 116, 117, 121, 127, 128 % of control
dose: 50.0 mg/kg/injection, schedule: Q04DX002 (ip), evaluated on day 35
  T/C: 103 % of control
dose: 50.0 mg/kg/injection, schedule: Q04DX002 (ip)
  survivor count: 3 of 3 and 6 of 6
dose: 50.0 mg/kg/injection, schedule: Q04DX003 (ip), evaluated on day 30
  T/C: 87, 90, 97, 98 (2×), 100 (2×), 101, 102, 103 (4×), 104, 105 [2 of 3 alive], 106, 108, 109 (4×), 110 (2×), 111, 112 (2×), 113 (2×), 116, 122, 128 % of control
dose: 50.0 mg/kg/injection, schedule: Q04DX003 (ip), evaluated on day 35
  T/C: 102 and 118 % of control
dose: 50.0 mg/kg/injection, schedule: Q04DX003 (ip)
  survivor count: 4 of 6, 3 of 3, 6 of 6
dose: 100.0 mg/kg/injection, schedule: Q01DX001 (ip), evaluated on day 30
  T/C: 90, 93 (2×), 94, 96, 97, 98, 99 [4 of 6 alive], 100 (2×), 101 (2×), 102 (2×), 104 (3×), 105, 106, 107 (2×), 109, 111, 114 (2×), 117 (2×), 119 % of control
dose: 100.0 mg/kg/injection, schedule: Q01DX001 (ip), evaluated on day 35
  T/C: 103 and 127 % of control
dose: 100.0 mg/kg/injection, schedule: Q01DX001 (ip)
  survivor count: 3 of 3 and 6 of 6
dose: 100.0 mg/kg/injection, schedule: Q01DX005 (ip), evaluated on day 30
  T/C: 88, 90, 91, 97, 99, 100 (2×), 107 (2×), 110, 112 (2×), 113 (2×), 114 (2×), 116, 117, 119, 120 (2×), 121 (2×), 122, 123, 125 (2×), 127, 128, 130, 134, 137, 140, 145 % of control
dose: 100.0 mg/kg/injection, schedule: Q01DX005 (ip), evaluated on day 35
  T/C: 102 % of control
[2]
  T/C: 91, 92 [2 of 3 alive], 96, 97, 98 (2×), 100 (2×), 102, 106 (2×), 107, 109, 110, 111, 113, 116, 117, 118 (2×), 120, 122, 125, 126, 127, 129, 133, 135, 145 (2×), 146 % of control
  survivor count: 0 of 3 and 6 of 6
dose: 100.0 mg/kg/injection, schedule: Q04DX002 (ip), evaluated on day 30
  T/C: 86, 88, 93 (3×), 95 (2×), 97, 99 (3×), 100, 101, 103, 105, 105 [5 of 6 alive], 106, 107, 108 (2×), 109 (3×), 110 (2×), 111 (2×), 112 (3×), 114 (2×), 135 % of control
dose: 100.0 mg/kg/injection, schedule: Q04DX002 (ip), evaluated on day 35
  T/C: 106 % of control
dose: 100.0 mg/kg/injection, schedule: Q04DX003 (ip), evaluated on day 30
  T/C: 94, 95 (3×), 100 (2×), 101, 104 (3×), 106, 107 (3×), 108, 109 (3×), 112 (2×), 113, 114 (2×), 114 [2 of 3 alive], 115, 118 (2×), 119, 121, 127 % of control
dose: 100.0 mg/kg/injection, schedule: Q04DX003 (ip), evaluated on day 35
  T/C: 98 [5 of 6 alive] and 102 % of control
dose: 100.0 mg/kg/injection, schedule: Q04DX003 (ip)
  survivor count: 1 of 3, 3 of 3, 6 of 6
dose: 200.0 mg/kg/injection, schedule: Q01DX001 (ip), evaluated on day 30
  T/C: 96 (2×), 100 (2×), 102 (2×), 104 (5×), 104 [5 of 6 alive], 106, 107, 108 (3×), 109, 111 [5 of 6 alive], 115, 115 [2 of 3 alive], 117, 118, 123, 125 [2 of 3 alive], 132 % of control (2×)
